Values from PubChem BioAssay AID504786 (Drosophila RNAi Screening Center, 2011).
Screen: 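Knock-downs reducing HIF reporter induction by the iron chelator DFO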 (primary screen). Cells: Drosophila S2 cells with a stable HIF luciferase reporter. Reagent: long dsRNA against Drosophila genes, about 0.2 µg dsRNA per well of a 384-well plate. Duration: three days of knock-down, then 20 h of DFO before reading. Challenge: desferrioxamine (DFO) at 100 µM, an iron chelator that mimics hypoxia, for 20 h. Measurement: 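HIF reporter luminescence in cells given 100 µM DFO for 20 h, using the mouse ldh-a hypoxia-response element, scored as per-plate z-scores; higher means greater loss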. Scale: z-score: higher = stronger loss of HIF reporter signal.
In all, the deposit lists about 21,000 reagents; shown is a random part of those with a known target gene and a result. 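Primary screen; positive scores mean lost reporter signal, so the sign may be inverted from the usual convention.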 Names joined by + are all predicted targets of the reagent. No sequences are given here.

Gene,DRSC id,"z-score, replicate 1","z-score, replicate 2"
Psi (GeneID 36889),DRSC07519,-0.3,-0.2
sage (GeneID 41105),DRSC14580,-0.5,-0.5
didum (GeneID 35680),DRSC07603,-0.3,-0.6
CG8461 (GeneID 41758),DRSC16424,-0.3,0
Jhbp11 (GeneID 43263),DRSC15183,-0.4,-0.5
Neto (GeneID 32303),DRSC18982,-0.4,-0.3
Neto (GeneID 32303),DRSC19503,-0.3,-0.7
Neto (GeneID 32303),DRSC19716,-0.1,0
Neto (GeneID 32303),DRSC19717,-0.4,0
Takl1 (GeneID 318725),DRSC13443,-0.2,0
Cbp20 (GeneID 42166),DRSC16601,1.9,3
CG30371 (GeneID 35806),DRSC06835,-0.2,-0.3
CG15841 (retired record) + Acp33A,DRSC01859,-0.4,-0.2
CG17085 (retired record) (GeneID 34501),DRSC02565,-0.2,-0.2
CG17085 (retired record) (GeneID 34501),DRSC02566,-0.3,0
Rab10 (GeneID 33025),DRSC20572,-0.9,-1.2
CG9705 (GeneID 39875),DRSC11094,-0.2,-0.4
CG5532 (GeneID 37761),DRSC04509,0.1,-0.3

3 successive reagents already listed, for reference:
Gene,DRSC id,"z-score, replicate 1","z-score, replicate 2"
Neto (GeneID 32303),DRSC18982,-0.4,-0.3
Neto (GeneID 32303),DRSC19503,-0.3,-0.7
Neto (GeneID 32303),DRSC19716,-0.1,0

More entries follow:
Gene,DRSC id,"z-score, replicate 1","z-score, replicate 2"
drosha (GeneID 35747),DRSC07607,0.4,0.4
CG31997 (GeneID 319064),DRSC17105,-0.1,-0.4
Gycbeta100B (GeneID 43682),DRSC14039,-0.2,-0.2
Gycbeta100B (GeneID 43682),DRSC14040,-0.3,-0.5
Gycbeta100B (GeneID 43682),DRSC16691,-0.2,-0.2
spd-2 (GeneID 39850),DRSC09682,-0.2,-0.2
Cap-D2 (GeneID 43491),DRSC15401,-0.4,-0.3
CG7460 (GeneID 39973),DRSC10850,-0.2,-0.6
CG16903 (GeneID 31178),DRSC18561,0.2,1.1
Hsc70-1 (GeneID 39542),DRSC11185,2,2
CG34428 (GeneID 5740867),DRSC10119,-0.1,-0.2
CG10445 (GeneID 40938),DRSC14247,-0.2,-0.8
CG13135 (GeneID 34345),DRSC02232,-0.3,-0.6
B-H2 (GeneID 32723),DRSC19335,5.3,6.1
velo (GeneID 38748),DRSC08841,0.5,-0.5
velo (GeneID 38748),DRSC09698,-0.1,-0.5
